Test [1] has as its target prostate specific membrane antigen (PSMA), full-length human (human) (UniProt Q04609). In words: total cell-associated radioactivity on C4-2 cells at 37 C [panel Total Binding on C4-2].
Another test deals with rsPSMA monomer (human) (UniProt Q04609). Briefly: Biacore 3000, antibody amine-coupled to a CM5 chip, rsPSMA monomer at 100 nM flowed over. For orientation: SPR reads the build-up and loss of mass on a sensor chip optically.
Test [2] addresses rsPSMA dimer (human) (UniProt Q04609). Briefly: Biacore 3000, antibody amine-coupled to a CM5 chip, rsPSMA dimer at 50 nM flowed over.
For test [3] the target is unchanged. In words: Biacore, mAb immobilized, rsPSMA dimer 50 nM vs monomer 100 nM.
The target of test [4] is prostate specific membrane antigen (PSMA), full-length human (human) (UniProt Q04609). Briefly: flow cytometry on cell-surface PSMA, serial dilutions of unpurified mAb in culture supernatant. On the technique in general: Flow cytometry measures light scatter and fluorescence of single cells or particles in a stream.
Test [5] shares this target. Briefly: flow cytometry, serial dilutions of culture supernatant.
For test [6] the target is unchanged. Briefly: flow cytometry, 3T3-PSMA vs 3T3 cells.
The target is the same in test [7]. Briefly: flow cytometry, 3T3-PSMA cells against parent 3T3 cells.

The chains behind the UniProt entries cited, without tags or fusion partners. Where a name states a change or a piece, a line headed by the entry shows the natural chain unless it says otherwise.
UniProt Q04609: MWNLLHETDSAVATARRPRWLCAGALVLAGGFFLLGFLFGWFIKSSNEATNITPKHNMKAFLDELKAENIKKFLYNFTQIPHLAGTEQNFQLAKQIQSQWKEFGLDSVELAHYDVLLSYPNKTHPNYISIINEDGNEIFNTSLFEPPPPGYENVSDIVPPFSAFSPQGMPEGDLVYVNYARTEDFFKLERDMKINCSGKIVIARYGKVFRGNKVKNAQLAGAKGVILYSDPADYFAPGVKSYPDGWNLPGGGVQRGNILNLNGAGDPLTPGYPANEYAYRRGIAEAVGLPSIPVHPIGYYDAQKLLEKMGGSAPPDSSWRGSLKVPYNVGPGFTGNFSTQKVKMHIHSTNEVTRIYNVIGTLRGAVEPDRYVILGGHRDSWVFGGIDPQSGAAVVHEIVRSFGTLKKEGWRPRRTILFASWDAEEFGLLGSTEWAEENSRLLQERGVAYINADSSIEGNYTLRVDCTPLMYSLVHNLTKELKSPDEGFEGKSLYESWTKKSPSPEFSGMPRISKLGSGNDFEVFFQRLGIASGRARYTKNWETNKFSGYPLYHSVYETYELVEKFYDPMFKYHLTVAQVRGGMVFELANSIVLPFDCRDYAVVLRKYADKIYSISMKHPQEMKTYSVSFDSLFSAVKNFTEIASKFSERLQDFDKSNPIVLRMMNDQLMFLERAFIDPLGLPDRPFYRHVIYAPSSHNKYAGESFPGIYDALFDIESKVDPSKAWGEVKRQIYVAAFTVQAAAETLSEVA

No constants are given. Whether binding was seen depends on the method and setting. Some results given as binding are weak or reduced against the parent protein; the word gives no strength.

B1: 111In labeled mAb 026 (antibody, V domains shown)
VH: QVQLVESGGGVVQPGRSLRLSCAASGFTFSNYVMHWVRQAPGKGLEWVAIIWYDGSNKYYADSVKGRFTISRDNSKNTLYLQMNSLRAEDTAVYYCAGGYNWNYEYHYYGMDVWGQGTTVTVSS
VL: DIQMTQSPSSLSASVGDRVTITCRASQGITNYLAWFQQKPGKAPKSLIYAASSLQSGVPSKFSGSGSGTDFSLTISSLQPEDFATYYCQQYNSYPITFGQGTRLEIK
Take B1: in test [1], the binding result is reported as “binds”.

B2: AB-PG1-XG1-026 (antibody, human IgG1, V domains shown)
VH: QVQLVESGGGVVQPGRSLRLSCAASGFTFSNYVMHWVRQAPGKGLEWVAIIWYDGSNKYYADSVKGRFTISRDNSKNTLYLQMNSLRAEDTAVYYCAGGYNWNYEYHYYGMDVWGQGTTVTVSS
VL: DIQMTQSPSSLSASVGDRVTITCRASQGITNYLAWFQQKPGKAPKSLIYAASSLQSGVPSKFSGSGSGTDFSLTISSLQPEDFATYYCQQYNSYPITFGQGTRLEIK
B2: the binding result (in the test with rsPSMA monomer (human); in the test with rsPSMA dimer (human) [2]; with rsPSMA dimer (human) [3]; in test [4]; in test [5]) was “binds” each time.

B3: AB-PG1-XG1-051 (antibody, human IgG1, V domains shown)
VH: QVQLVESGGGVVQPGRSLRLSCAASGFTFSSYGMHWVRQAPGKGLDWVAIIWHDGSNKYYADSVKGRFTISRDNSKKTLYLQMNSLRAEDTAVYYCARAWAYDYGDYEYYFGMDVWGQGTTVTVSS
VL: DIQMTQSPSSLSASVGDRVTITCRASQGISHYLAWFQQKPGKAPKSLIYAASSLQSGVPSKFSGSGSGTDFTLTISSLQPEDFATYYCQQYNSFPLTFGGGTKVEIK
In the case of B3, the binding entry in test [6] and in test [7] was “binds” each time.

The values above are taken from patent US20040161776A1.
